The source of these data is PubChem BioAssay AID493014 (National Center for Advancing Translational Sciences (NCATS), 2011).

Some of the results follow. These are further read-outs of the screen, such as a control signal, another cell line or another target. No call is given for them. The list favours compounds with an active or inconclusive main result. Potencies come from curve fits of mixed quality, noted in brackets.

The experiment is described as follows: qHTS Assay to Find Inhibitors of Chronic Active B-Cell Receptor Signaling. As to conditions: ABC-DLBCL IkBa-CBG/CBR reporter, luminescence ratio (green luciferase fused to IkBa over red control in TMD8 lymphoma cells), 4 h. A digest of the protocol: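 Doxycycline induced both beetle luciferases in TMD8 lymphoma cells; IKK-driven degradation limits the IkappaBalpha-fused green signal, while red luminescence normalises for cell number and nonspecific effects. Compounds tested up to 46 uM, 4 hrs.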

Where [1] appears, read: measured here: CBR red luminescence, cell number.
Setting [2] is: measured here: IkBa-CBG green luminescence.

With `CCN1CCN(CC(O)COc2ccc3c(C)cc(=O)oc3c2)CC1` (stereo not drawn), the AC50 (in general, the midpoint of the concentration-response curve, whichever way the signal moves) under setting [1] is 4.47 µM [rising, partial curve, poor fit].
The same measure, in the same setting: for `CC(NC(=O)OCc1ccccc1)C(=O)N1CC(O)CC1C(=O)O` (stereo not drawn) the value was 0.0461 µM [falling, full curve, poor fit]; for `COc1cc(SC)ccc1C(=O)Nc1cc(C)ccn1`, 6.31 µM [falling, partial curve]; for `CC(=O)N1CCC(N(C(=O)Nc2ccc(Cl)cc2)C(C)C)CC1`, 11.2 µM [rising, partial curve, poor fit].
Take `Oc1[nH]c2ccc(Br)cc2c1N=NC(=S)NCC1CCCO1` (stereo not drawn): the AC50 is 3.98 µM [rising, single point] under setting [1] and 5.62 µM [falling, single point] under setting [2].
With `CCCOc1cccc(C(=O)NCCNC(=O)c2ccccn2)c1`, the AC50 reads like this: under setting [1], 35.5 µM [rising, single point]; under setting [2], 11.2 µM [falling, partial curve, poor fit].
With `Cc1cc(C)cc(NC(=O)c2ccc([N+](=O)[O-])o2)c1`, the AC50 under setting [1] is 3.16 µM [falling, single point].
The same measure, in the same setting: for `O=C(NNc1nc2ccc(F)cc2s1)c1cccc(F)c1` the value was 12.6 µM [falling, partial curve, poor fit]; for `Cc1ccc(NC(=O)Nc2ccccc2CC[N+](=O)[O-])cc1`, 11.2 µM [falling, partial curve, poor fit].
Still for that read-out and setting: for `CCOC(=O)CSc1nc(N)c(C(=O)Nc2ccc(N(C)C)cc2)s1` the value was 35.5 µM [falling, single point]; for `Cc1[nH]c2ccccc2c1C(=O)CSc1ccccc1`, 1.84 µM [rising, full curve]; for `Cc1cc(C)c(C2C(C#N)=C(N)Oc3n[nH]c(C)c32)cc1CN1CCCC1` (stereo not drawn), 5.8 µM [falling, partial curve].
On the same count and under the same terms, for `O=C(Nc1nnc(-c2ccco2)o1)c1ccc([N+](=O)[O-])s1` the value was 5.01 µM [falling, full curve]; for `CN(C)C(=O)c1cc2cc(Br)ccc2s1`, 7.08 µM [rising, partial curve].
In the case of `O=C(Nc1cccc(Cl)c1)N1CCc2ccccc2C1`, under setting [1], the AC50 was 11.2 µM [falling, partial curve, poor fit].
Same read-out and setting: for `CCC(Sc1ncnc2c1nnn2-c1ccc(F)cc1)C(=O)OC` (stereo not drawn) the value was 35.5 µM [falling, single point].
Still for that read-out and setting: for `O=C(NNC(=S)NCC1CCCO1)c1cc(Br)ccc1Cl` (stereo not drawn) the value was 31.6 µM [rising, single point]; for `COC(=O)C(C)n1cnc2c(nnn2-c2ccccc2)c1=O` (stereo not drawn), 0.447 µM [rising, full curve, poor fit]; for `CC(C)C(=O)Nc1cccc(NC(=O)c2cc3ccccc3o2)c1`, 0.731 µM [falling, partial curve].
Still for that read-out and setting: for `CN(C(=O)COC(=O)/C=C/c1ccc2ccccc2n1)C1CCS(=O)(=O)C1` (stereo not drawn) the value was 8.91 µM [falling, partial curve]; for `CCCCCCOC(=O)/C=C/c1c(C)[nH]c(=O)[nH]c1=O`, 14.6 µM [rising, partial curve, poor fit]; for `CCOCc1nnc(NC(=O)c2ccco2)s1`, 1.46 µM [rising, full curve].
Regarding `COc1ccc(/C=N/Nc2nc(Nc3ccccc3)nc(N3CCCCC3)n2)cc1OC`, the AC50 under setting [1] was 1.12 µM [falling, partial curve].
Still for that read-out and setting: as for `CCCCOC(=O)c1ccc(NC(=S)NC(=O)c2ccco2)cc1`, the figure is 35.5 µM [rising, single point].
Same read-out and setting: for `COc1ccccc1N1CCN(C2CCCN(C(=O)c3cccc(-c4ccco4)c3)C2)CC1` (stereo not drawn) the value was 6.31 µM [falling, full curve, poor fit].
For `Cc1ccc2c(c1)[C@H]1[C@H](CO2)[C@H](c2ccccc2)[C@]2(C)C(=O)Nc3ccccc3C(=O)N12`, the AC50 is 3.26 µM [falling, full curve] under setting [1] and 3.66 µM [rising, partial curve, poor fit] under setting [2].
`O=C(Nc1cccc(Cl)c1)c1cc2c(=O)n3ccccc3nc2s1`: the AC50 under setting [1] was 2.82 µM [rising, partial curve, poor fit].
On to `CCCOc1ccc(C(=O)Nc2ccc3c(c2)OCO3)cc1`, for which the AC50 under setting [1] is 1.12 µM [falling, full curve, poor fit].
For the compound `Cc1ccc(Cn2ccc(NC(=O)CCSc3nc(-c4ccco4)cc(C(F)(F)F)n3)n2)cc1`, the AC50 under setting [1] was 0.0058 µM [rising, full curve, poor fit].
Take `COCCCNC(=O)c1cn(C)c(=O)c2c1c1ccccc1n2C`: the AC50 under setting [1] is 15.8 µM [rising, partial curve, poor fit].
In the case of `Cc1nc(N)sc1C(=O)N/N=C/c1ccccc1[N+](=O)[O-]`, under setting [1], the AC50 was 6.31 µM [falling, partial curve, poor fit].
Still for that read-out and setting: as for `COc1cccc(C(=O)n2c(SC)nc3cc4c(cc32)OCCO4)c1`, the figure is 3.98 µM [falling, full curve, poor fit]; as for `CC1CCN(C(=O)CSc2nc(N)c3c4c(sc3n2)CN(C)CC4)CC1`, 3.55 µM [rising, single point].
Same read-out and setting: as for `CC1CCc2sc(C(=O)N3CCC(C(N)=O)CC3)cc2C1` (stereo not drawn), the figure is 29.1 µM [falling, single point]; as for `O=C(NCc1ccc(Cl)s1)c1cc(COc2c(F)cccc2F)on1`, 35.5 µM [rising, single point]; as for `Cc1sc2nc(COC(=O)c3ccc(O)cc3)[nH]c(=O)c2c1C`, 11.2 µM [falling, single point].
As to `O=[N+]([O-])/C=C/c1cn(Cc2ccc(F)cc2)c2ccccc12`, the AC50 under setting [1] was 35.5 µM [rising, single point] and the AC50 under setting [2] is 35.5 µM [falling, single point].
For `COc1ccc(NC(=O)CCSc2ccc3ccccc3n2)cc1`, the AC50 under setting [1] is 10.3 µM [rising, partial curve].
As to `Cc1ccc(OCCCCN2CCC(C)CC2)c(Br)c1`, the AC50 under setting [1] was 32.6 µM [falling, single point].
Same read-out and setting: for `CC1=C(C(=O)Nc2cccc(C(=O)NC3CCCCC3C)c2)SCCO1` (stereo not drawn) the value was 10 µM [falling, partial curve]; for `CCOC(=O)N1CCN(C(=O)CSc2nc3ccccc3c(=O)n2-c2ccccc2)CC1`, 0.501 µM [rising, full curve, poor fit]; for `C/C(=N\Nc1cccc(C(F)(F)F)c1)c1ccc(O)cc1`, 2.24 µM [rising, full curve, poor fit].
On the same count and under the same terms, for `CCCN1CCc2c(sc(NC(=O)c3ccc(S(=O)(=O)N4CCCC4)cc3)c2C(N)=O)C1` the value was 11.2 µM [rising, partial curve, poor fit]; for `CC1(C)CC(=O)C(=Cc2cn(CCC#N)nc2-c2ccc(Cl)cc2)C(=O)C1`, 23.1 µM [rising, single point]; for `O=C(N/N=C/c1ccco1)c1ccccc1OCc1ccccc1Cl`, 29.1 µM [falling, single point].
The same measure, in the same setting: for `N#CC12CCCCC1CC1CCCCC1(C#N)N2Cc1ccccn1` (stereo not drawn) the value was 3.55 µM [falling, partial curve, poor fit].
On to `CCOC(=O)c1c(-c2ccccc2)csc1NC(=O)c1cc(S(=O)(=O)N2CCOCC2)ccc1C`, for which, under setting [1], the AC50 is 6.51 µM [falling, single point].
The same measure, in the same setting: for `Cc1c(NS(C)(=O)=O)cccc1-c1nc2cccnc2s1` the value was 3.16 µM [rising, full curve, poor fit]; for `OC(COc1ccc2c(c1)OCO2)CN1CCCC1` (stereo not drawn), 0.398 µM [falling, partial curve, poor fit]; for `Cc1nn(CC2CC2)c(=O)n1-c1ccc(Cl)cc1`, 8.91 µM [rising, partial curve].
On the same count and under the same terms, as for `Cc1ccc(NC2=C(N3CCCCC3)C(=O)c3ccccc3C2=O)cc1`, the figure is 22.4 µM [falling, single point]; as for `CCOc1ccc(OCC)c(NC(=O)CCS(=O)(=O)c2ccc(Br)s2)c1`, 0.259 µM [rising, full curve, poor fit].
For the compound `CCN(CC)CCN1C(=O)C(=O)/C(=C(/O)c2ccc(OC)cc2)C1c1cccs1` (stereo not drawn), the AC50 under setting [1] is 35.5 µM [falling, single point].
Take `Cc1nc(NNC(=O)c2ccccc2)cc(-c2ccccc2)n1`: under setting [1], the AC50 was 29.1 µM [falling, single point].
Same read-out and setting: as for `Cc1ccc(CN2C(=O)CCC2C(=O)NCCCN2CCCCC2C)cc1` (stereo not drawn), the figure is 1.26 µM [falling, partial curve, poor fit].
On the same count and under the same terms, for `O=C(NC(=O)c1cccc(F)c1)OC[C@@H]1CCCN2CCCC[C@H]12` the value was 25.9 µM [rising, single point].
Same read-out and setting: as for `O=C(Cc1coc(-c2ccc(F)cc2)n1)Nc1ccccc1`, the figure is 12.6 µM [falling, single point]; as for `CN(C)CCn1c(NCc2ccc3c(c2)OCO3)nc2ccccc21`, 17.8 µM [falling, single point].
With `COc1ccc(C(C)=O)cc1CSc1nc2nc(C)cc(C)n2n1`, the AC50 under setting [1] was 12.6 µM [rising, partial curve, poor fit].
On to `COc1ccc(CC(=O)Nc2cccc(SC)c2)cc1OC`, for which the AC50 under setting [1] was 0.891 µM [rising, full curve, poor fit].
As to `CN1CCC(N(C)C(=O)/C=C/c2cn(-c3ccccc3)nc2-c2cccs2)CC1`, under setting [1], the AC50 was 35.5 µM [falling, single point].
On the same count and under the same terms, as for `CSc1sc(C(=O)NCC2CC2)c(-c2cccs2)c1C#N`, the figure is 5.62 µM [rising, single point]; as for `N=c1c2c3c(sc2ncn1CCCN1CCOCC1)CCCCC3`, 18.4 µM [rising, partial curve, poor fit].
On the same count and under the same terms, for `O=C(NNC(=O)c1ccccc1OCc1ccc(F)cc1)c1ccccc1O` the value was 11.2 µM [falling, partial curve, poor fit].
